The results in this text go back to PMC4263767, “IL-28B is a Key Regulator of B- and T-Cell Vaccine Responses against Influenza” (PLoS Pathogens, 2014).

Protein sequences, listed by entry. Tags and fused reporters are not part of them. Lines headed by an entry give the natural chain unless they say otherwise; changes in a name come on top.
UniProt Q8IU57: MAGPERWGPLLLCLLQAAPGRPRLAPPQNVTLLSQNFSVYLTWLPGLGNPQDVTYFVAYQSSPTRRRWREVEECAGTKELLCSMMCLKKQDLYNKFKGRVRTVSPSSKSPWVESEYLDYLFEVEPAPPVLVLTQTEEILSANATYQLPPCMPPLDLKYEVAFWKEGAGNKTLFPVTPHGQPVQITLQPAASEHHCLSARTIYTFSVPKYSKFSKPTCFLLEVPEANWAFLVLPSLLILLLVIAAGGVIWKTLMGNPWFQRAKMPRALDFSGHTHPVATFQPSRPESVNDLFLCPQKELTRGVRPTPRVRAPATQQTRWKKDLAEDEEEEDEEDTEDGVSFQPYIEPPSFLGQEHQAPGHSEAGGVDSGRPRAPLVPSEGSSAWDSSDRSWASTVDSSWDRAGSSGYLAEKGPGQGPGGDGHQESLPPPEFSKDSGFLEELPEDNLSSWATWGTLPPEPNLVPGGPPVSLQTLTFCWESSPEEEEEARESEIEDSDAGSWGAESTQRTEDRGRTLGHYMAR

Like-named read-outs stand apart in the source and are kept apart here. These are yes or no findings as the source states them, for the method shown. A result given as binding can be weak or reduced; the word gives no strength. Sequences can lack the tags named with a protein.

The target of test [1] is recombinant IL-28 receptor alpha subunit (IL28RA) (human) (UniProt Q8IU57).
The target is the same in test [2]. The test can be described thus: ELISA; competition ELISA: recombinant IL28RA coated on the plate, pre-treated with a fixed concentration of peptide (10 µM), then his-tagged IL-28B at 100 ng/mL; bound IL-28B detected with anti-his antibody; both purified. Background: An ELISA detects its analyte on a solid surface through an enzyme-linked reagent.

B1: recombinant, his-tagged IL-28B (ligand, UniProt Q8IZI9 22-196)
chain: VPVARLRGALPDARGCHIAQFKSLSPQELQAFKRAKDALEESLLLKDCKCRSRLFPRTWDLRQLQVRERPVALEAELALTLKVLEATADTDPALGDVLDQPLHTLHHILSQLRACIQPQPTAGPRTRGRLHHWLHRLQEAPKKESPGCLEASVTFNLFRLLTRDLNCVASGDLCV
Turning to B1, the binding entry in test [1] and in test [2] was “binds” in each case.
